Structures are written as SMILES. “Also recorded” adds a separate entry of the source.

The experiment has as its system C57/BL mice. Description: Acute effects in the tail-flick test (Experiment 2). The conditions noted are these: mouse, in vivo. As to the method:
Male C57/BL mice (IMP, Lodz, Poland), 22-24 g of body weight were group-housed in the standard laboratory cages and kept in a temperature-controlled colony room (21±2° C.) with a 12-hour light/dark cycle (light on: 07:00, off: 19:00). Commercial food and tap water were available ad libitum. Each experimental group consisted of 7-28 mice per treatment. All mice were used only once.
The intensity of the heat stimulus was adjusted so that the baseline tail-flick latency was ˜3 seconds. […] Each response assessment consisted of two separate measurements taken at different portions of the tail (spaced by 1.5-2 cm) and separated by 15 seconds. The mean of these responses was used for subsequent comparisons.
The N is given in brackets. Presented in FIG. 5 are mean±S.E.M. Area Under Curve (AUC) values calculated on the same data.
On the technique in general: Hot-plate and tail-flick tests time the reaction to a heat stimulus.

For `CN1CC[C@]23c4c5ccc(O)c4O[C@H]2[C@@H](O)C=C[C@H]3[C@H]1C5` [Morphine, morphine], the “tail-flick responses (AUC) compared to placebo+placebo treatment” value is “statistically significantly longer tail-flick responses; also recorded: differed significantly”.

The values are drawn from patent US7553866B2, “Thiolactones” (Eisai Corporation of North America, priority 2003, dated 2009).
